# Experimental data as given in PubChem BioAssay AID493014 (National Center for Advancing Translational Sciences (NCATS), 2011).
# The list shows a part of the results. Further columns of the screen follow, without active or inactive calls. Compounds called inactive in the main read-out are mostly missing here. The note in brackets gives the kind of curve behind each potency; many fits are weak.
# Assay: qHTS Assay to Find Inhibitors of Chronic Active B-Cell Receptor Signaling
# Conditions: ABC-DLBCL IkBa-CBG/CBR reporter, luminescence ratio (green luciferase fused to IkBa over red control in TMD8 lymphoma cells), 4 h
# How it was run: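 Compounds up to 46 uM were incubated four hours with TMD8 cells whose green CBG68 luciferase is fused to IkappaBalpha; red CBR luminescence normalised the signal, and concentration-effect curves were fitted to fusion, red and ratio data.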
# [1] = measured here: CBR red luminescence, cell number
# [2] = measured here: IkBa-CBG green luminescence
smiles,measurement,setting,value
N#Cc1cn(-c2ccccc2)nc1-c1ccccc1,AC50,[1],"11.2 µM [rising, partial curve, poor fit]"
Cc1ccc2[nH]c(=O)c(CN(C(=O)c3cccc([N+](=O)[O-])c3)C(C)(C)C)cc2c1,AC50,[1],"35.5 µM [rising, partial curve, poor fit]"
CC1=NN(C(=O)c2c(Br)cnn2C)C(O)(C(F)(F)F)C1 (centres undefined),AC50,[1],"6.31 µM [falling, single point]"
O=C(Nc1cccc(S(=O)(=O)N2CCCC2)c1)c1ccc(Cl)nc1,AC50,[1],"5.8 µM [falling, partial curve]"
O=C(Nc1ccc(NC(=O)c2ccccc2F)cn1)c1ccco1,AC50,[1],"11.2 µM [falling, single point]"
CCOc1ccc(C(=O)NC(=S)Nc2cccc(S(=O)(=O)NC3=NCCC3)c2)cc1,AC50,[1],"22.4 µM [rising, single point]"
same,AC50,[2],"17.8 µM [falling, partial curve]"
CCCc1[nH]nc2c1C(c1cc(OC)ccc1F)C(C#N)=C(N)O2 (centres undefined),AC50,[1],"22.4 µM [falling, single point]"
COc1cc(C(=O)NCC(c2ccco2)N2CCc3ccccc32)cc(OC)c1OC (centres undefined),AC50,[1],"14.6 µM [falling, single point]"
Cc1c(/C=N/n2cnnc2)c2ccccc2n1CCOc1ccccc1,AC50,[2],"15.8 µM [falling, partial curve, poor fit]"
O=C(Nc1ccc(Cl)cc1C(F)(F)F)C(Sc1nnc(-c2cccs2)o1)c1ccccc1 (centres undefined),AC50,[1],"29.1 µM [falling, single point]"
CC#C[C@]1(O)CC[C@H]2[C@@H]3CCC4=CC(=O)CCC4=C3[C@@H](c3ccc(N(C)C)cc3)C[C@@]21C,AC50,[2],"17.8 µM [rising, partial curve, poor fit]"
Cc1ccc2c(c1)sc(-c1ccc(N(C)C)cc1)[n+]2C,AC50,[1],"14.1 µM [falling, partial curve, poor fit]"
NS(=O)(=O)c1ccc(N/N=C/c2ccc(C(=O)O)cc2)c([N+](=O)[O-])c1,AC50,[1],"3.98 µM [falling, partial curve]"
CCc1nnc(NC(=O)CSc2nnc(CNc3cccc(Cl)c3)n2CC)s1,AC50,[1],"16.4 µM [falling, single point]"
COC(=O)[C@]1(C)N[C@H](CN(C)S(=O)(=O)c2ccc(F)cc2)[C@@H]2C(=O)N(C)C(=O)[C@@H]21,AC50,[1],"16.4 µM [rising, partial curve, poor fit]"
O=C(NCCc1ccccc1)c1c[nH]c2c(F)cccc2c1=O,AC50,[1],"14.1 µM [falling, single point]"
COC(=O)c1ccc(C(=O)NC2CCSc3ccccc32)cc1 (centres undefined),AC50,[1],"15.8 µM [falling, single point]"
C=C1C(=O)O[C@@]23[C@H]1CC[C@@H](C)[C@@H]2CC[C@@]1(C)O[C@@H]31,AC50,[1],"6.51 µM [falling, full curve]"
Cc1ccccc1NC(=S)NCc1ccc2c(c1)cc(C)n2C,AC50,[1],"16.4 µM [rising, partial curve]"
same,AC50,[2],"5.8 µM [falling, partial curve]"
O=c1c2ccccc2nc(-c2ccccc2)n1CCCn1ccnc1,AC50,[1],"35.5 µM [rising, single point]"
COc1ccc(/C=N\NC(=O)c2ccc(-c3ccccc3)cc2)cc1COC(C)=O,AC50,[1],"10 µM [falling, partial curve, poor fit]"
O=C(NN=C1CCCCCCC1)c1ccc2ccccc2n1,AC50,[1],"15.8 µM [falling, single point]"
CCOc1ccccc1NC(=O)COc1coc(CN2CCCc3ccccc32)cc1=O,AC50,[1],"0.82 µM [falling, full curve]"
CSCC[C@H](NC(=O)C1CCN(S(=O)(=O)c2ccc(C)cc2C)CC1)c1nc2ccccc2[nH]1,AC50,[1],"2.06 µM [rising, partial curve, poor fit]"
CCCn1c(SCC(=O)Nc2cccc(S(=O)(=O)N(C)C)c2)nc2ccccc2c1=O,AC50,[1],"1.26 µM [falling, full curve, poor fit]"
CCOC(=O)C1CCCCN1C(=O)CCc1c(C)nc2ncnn2c1C (centres undefined),AC50,[1],"3.16 µM [falling, partial curve]"
O=C(N/N=C/c1ccc(O)c(O)c1)NC12CC3CC(CC(C3)C1)C2,AC50,[1],"35.5 µM [falling, single point]"
O=C(COC(=O)CC1CCCC1)Nc1ccc(Cl)cn1,AC50,[1],"2.31 µM [rising, partial curve, poor fit]"
COCCNC(=O)c1ccccc1NC(=O)CCSc1ccccc1,AC50,[1],"11.2 µM [falling, partial curve, poor fit]"
O=C(CNC(=O)c1ccc(F)cc1)N/N=C/c1ccc(O)c([N+](=O)[O-])c1,AC50,[1],"0.259 µM [falling, full curve]"
Cc1ccc(C(=O)OCC(=O)NCc2cc(C)c(O)c(C)c2)cc1S(=O)(=O)N1CCCCC1,AC50,[1],"0.259 µM [rising, full curve, poor fit]"
CCOC(=O)c1cccc(NC(=O)CN2CCN(c3ccc(OC)cc3)CC2)c1,AC50,[1],"25.1 µM [rising, single point]"
COc1cc(OC)c(-c2nc3ccccc3s2)cc1OC,AC50,[1],"0.316 µM [rising, full curve, poor fit]"
CCOc1ccc(S(=O)(=O)N2CCCC(C(=O)NCC3CCCO3)C2)cc1 (centres undefined),AC50,[1],"6.31 µM [rising, single point]"
Cc1ccc(C(=O)N(CCCN(C)C)c2nc3ccc(Cl)cc3s2)cc1C,AC50,[1],"35.5 µM [falling, single point]"
O=C(NC1CCCCC1)C(c1ccc2ncccc2c1)N(Cc1ccc2c(c1)OCO2)C(=O)c1cccs1 (centres undefined),AC50,[1],"7.08 µM [falling, partial curve, poor fit]"
COc1cc(/C=N/OCC(=O)NC23CC4CC(CC(C4)C2)C3)ccc1OCc1ccccc1,AC50,[1],"5.17 µM [rising, partial curve, poor fit]"
O=C(c1cccs1)N1CCN(Cc2cn[nH]c2-c2ccc(F)cc2F)CC1,AC50,[1],"6.31 µM [falling, single point]"
O=C(Nc1c(C(=O)N2CCN(c3ccccc3)CC2)oc2ccccc12)c1ccccc1F,AC50,[1],"12.6 µM [rising, partial curve, poor fit]"
Cc1ccnc(NC(c2cccnc2)c2ccc3cccnc3c2O)c1 (centres undefined),AC50,[1],"12.6 µM [falling, single point]"
Cc1ccc(NC(=O)C2CCCN(c3ncnc4c3nc3n4CCCCC3)C2)cc1Cl (centres undefined),AC50,[1],"35.5 µM [falling, single point]"
Cc1cc(C(=O)NN=C(Cc2ccccc2)Cc2ccccc2)c(C)o1,AC50,[1],"9.2 µM [falling, partial curve, poor fit]"
Cc1ccc(NC(=O)COC(=O)COc2cccc3c2OC(C)(C)C3)cc1C,AC50,[1],"35.5 µM [rising, single point]"
CCn1c(CNc2ccc(C)cc2C)nnc1SCC(=O)N1CCCc2ccccc21,AC50,[1],"4.11 µM [falling, full curve, poor fit]"
CN1CCN(CCCNC(=O)CCN2C(=O)COc3ccccc32)CC1,AC50,[1],"17.8 µM [rising, partial curve, poor fit]"
CCOc1ccc(-c2c(=O)n(OCc3ccc([N+](=O)[O-])cc3)c3ccccc3[n+]2[O-])cc1,AC50,[1],"29.1 µM [falling, single point]"
Cc1nonc1OCCCNc1ccc([N+](=O)[O-])cc1Cl,AC50,[1],"4.47 µM [rising, single point]"
O=C(Nc1nc(-c2cc(Cl)sc2Cl)cs1)c1cccs1,AC50,[1],"0.164 µM [rising, full curve, poor fit]"
CC(=C\c1ccccc1)/C=C1/SC(=S)N(C(C(=O)O)C(C)C)C1=O (centres undefined),AC50,[1],"3.55 µM [falling, partial curve, poor fit]"
O=C(NCC1CCCO1)c1sc2cc(Cl)ccc2c1Cl (centres undefined),AC50,[1],"29.1 µM [falling, single point]"
O=S(=O)(c1ccccc1)c1nc(-c2ccccc2Cl)oc1NCCN1CCOCC1,AC50,[1],"18.4 µM [falling, single point]"
Cc1ccc(C)c(N2CCN(S(=O)(=O)c3c(C(=O)N4CCCCC4)c(C)n(C)c3C)CC2)c1,AC50,[1],"0.631 µM [rising, full curve, poor fit]"
COc1cccc(N2CCN(c3ncnc4c3[nH]c3ccc(F)cc34)CC2C)c1 (centres undefined),AC50,[1],"8.91 µM [falling, partial curve, poor fit]"
Cc1cccnc1NC(=O)C(C)Oc1ccccc1 (centres undefined),AC50,[1],"1.46 µM [rising, partial curve, poor fit]"
CCOC(=O)NC1(Nc2ccc(Cl)cn2)Oc2ccccc2O1,AC50,[1],"20 µM [falling, single point]"
COc1ccc(/C=N\NC(=O)COc2ccccc2Cl)cc1Cn1nc(C)cc1C,AC50,[1],"17.8 µM [rising, single point]"
COc1ccc(NC(=O)CSc2nnc(Cc3ccccc3)c(=O)n2N)c(OC)c1,AC50,[1],"1.3 µM [falling, full curve, poor fit]"
COC(=O)Cc1c(C)c2ccc(OCC(C)=O)c(C)c2oc1=O,AC50,[1],"29.1 µM [falling, single point]"
Cc1nnc(NC(=O)COc2ccccc2)s1,AC50,[1],"1.16 µM [rising, partial curve, poor fit]"
COc1ccc(CCNC(=O)Cn2c(=O)n(CC3CCCO3)c(=O)c3cc(OC)c(OC)cc32)cc1OC (centres undefined),AC50,[1],"35.5 µM [rising, single point]"
Brc1ccc(/C=N/Nc2nc3ccccc3o2)cc1,AC50,[1],"11.2 µM [falling, partial curve]"
COc1ccc(OC)c(-c2csc(NC(=O)Cc3ccc(OC)c(OC)c3)n2)c1,AC50,[1],"20 µM [falling, single point]"

# Quoted at random: six records from the list, in no set order.
smiles,measurement,setting,value
O=S(=O)(c1ccccc1)c1nc(-c2ccccc2Cl)oc1NCCN1CCOCC1,AC50,[1],"18.4 µM [falling, single point]"
Cc1ccc(C(=O)N(CCCN(C)C)c2nc3ccc(Cl)cc3s2)cc1C,AC50,[1],"35.5 µM [falling, single point]"
COc1cc(/C=N/OCC(=O)NC23CC4CC(CC(C4)C2)C3)ccc1OCc1ccccc1,AC50,[1],"5.17 µM [rising, partial curve, poor fit]"
CCOC(=O)c1cccc(NC(=O)CN2CCN(c3ccc(OC)cc3)CC2)c1,AC50,[1],"25.1 µM [rising, single point]"
Cc1ccnc(NC(c2cccnc2)c2ccc3cccnc3c2O)c1 (centres undefined),AC50,[1],"12.6 µM [falling, single point]"
CN1CCN(CCCNC(=O)CCN2C(=O)COc3ccccc32)CC1,AC50,[1],"17.8 µM [rising, partial curve, poor fit]"
